This is an account of results in the supplement of paper PMC7666118.

Chains of the proteins cited; added tags and fusions are not shown. Lines headed by an entry give the natural chain unless they say otherwise; changes in a name come on top.
UniProt P10155: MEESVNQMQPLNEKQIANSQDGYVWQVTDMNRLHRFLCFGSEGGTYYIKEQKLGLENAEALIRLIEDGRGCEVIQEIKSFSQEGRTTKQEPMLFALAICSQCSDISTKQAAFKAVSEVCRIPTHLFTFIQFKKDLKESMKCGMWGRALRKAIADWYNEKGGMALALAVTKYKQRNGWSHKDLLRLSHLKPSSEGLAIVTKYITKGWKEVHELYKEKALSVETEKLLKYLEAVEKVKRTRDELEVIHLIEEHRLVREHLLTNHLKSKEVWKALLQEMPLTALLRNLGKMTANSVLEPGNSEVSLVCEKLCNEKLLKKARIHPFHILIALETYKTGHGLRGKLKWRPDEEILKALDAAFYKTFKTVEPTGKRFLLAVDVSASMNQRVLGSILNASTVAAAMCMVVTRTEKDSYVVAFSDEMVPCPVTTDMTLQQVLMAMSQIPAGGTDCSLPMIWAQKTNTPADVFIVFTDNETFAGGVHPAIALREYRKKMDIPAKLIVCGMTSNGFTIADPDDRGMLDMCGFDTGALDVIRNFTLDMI
UniProt Q8N2K1: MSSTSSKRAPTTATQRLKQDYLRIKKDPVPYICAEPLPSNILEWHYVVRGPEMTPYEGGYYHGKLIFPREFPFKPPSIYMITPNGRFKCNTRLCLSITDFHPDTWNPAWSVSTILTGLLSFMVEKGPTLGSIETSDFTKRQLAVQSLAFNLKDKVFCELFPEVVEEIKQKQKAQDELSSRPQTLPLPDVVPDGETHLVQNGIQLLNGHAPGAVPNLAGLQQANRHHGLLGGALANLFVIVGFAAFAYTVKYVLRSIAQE
UniProt Q9UGJ1, whole entry: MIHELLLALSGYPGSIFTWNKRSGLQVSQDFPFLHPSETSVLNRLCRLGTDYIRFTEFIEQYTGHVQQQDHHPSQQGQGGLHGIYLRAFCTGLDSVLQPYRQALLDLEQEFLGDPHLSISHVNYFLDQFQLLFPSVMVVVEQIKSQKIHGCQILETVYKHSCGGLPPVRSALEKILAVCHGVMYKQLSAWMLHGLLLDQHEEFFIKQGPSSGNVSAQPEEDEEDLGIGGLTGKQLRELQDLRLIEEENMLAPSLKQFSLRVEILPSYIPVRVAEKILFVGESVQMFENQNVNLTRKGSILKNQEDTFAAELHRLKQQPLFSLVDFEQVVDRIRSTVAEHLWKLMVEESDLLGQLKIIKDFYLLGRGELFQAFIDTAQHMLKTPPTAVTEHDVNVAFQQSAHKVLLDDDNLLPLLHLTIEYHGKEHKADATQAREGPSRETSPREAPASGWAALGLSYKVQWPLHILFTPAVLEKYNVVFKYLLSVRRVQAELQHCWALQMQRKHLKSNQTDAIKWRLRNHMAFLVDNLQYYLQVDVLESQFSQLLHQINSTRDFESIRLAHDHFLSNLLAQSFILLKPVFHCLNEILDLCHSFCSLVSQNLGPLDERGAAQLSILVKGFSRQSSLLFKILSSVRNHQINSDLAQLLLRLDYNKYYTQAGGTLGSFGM
UniProt Q15628: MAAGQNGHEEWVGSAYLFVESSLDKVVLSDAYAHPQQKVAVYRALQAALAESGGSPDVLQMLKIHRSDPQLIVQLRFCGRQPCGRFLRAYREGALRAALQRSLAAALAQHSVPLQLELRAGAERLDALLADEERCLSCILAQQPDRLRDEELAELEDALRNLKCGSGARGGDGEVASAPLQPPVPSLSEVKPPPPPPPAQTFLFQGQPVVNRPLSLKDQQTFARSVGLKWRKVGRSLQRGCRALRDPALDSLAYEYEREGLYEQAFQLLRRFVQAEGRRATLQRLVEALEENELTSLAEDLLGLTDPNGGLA
UniProt Q9BZV1: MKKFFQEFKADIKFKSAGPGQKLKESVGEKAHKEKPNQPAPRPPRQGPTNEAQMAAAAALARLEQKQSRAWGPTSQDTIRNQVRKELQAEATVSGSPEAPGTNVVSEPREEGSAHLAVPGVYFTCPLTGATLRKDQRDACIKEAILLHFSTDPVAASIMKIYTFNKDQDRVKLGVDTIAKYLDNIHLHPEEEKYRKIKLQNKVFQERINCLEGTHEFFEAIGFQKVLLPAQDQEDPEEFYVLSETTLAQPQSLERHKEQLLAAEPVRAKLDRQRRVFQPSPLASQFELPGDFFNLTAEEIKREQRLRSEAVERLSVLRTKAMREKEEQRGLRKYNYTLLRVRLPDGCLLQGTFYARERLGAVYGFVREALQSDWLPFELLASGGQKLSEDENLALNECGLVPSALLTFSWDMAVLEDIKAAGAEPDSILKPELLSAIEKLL
UniProt Q96Q11: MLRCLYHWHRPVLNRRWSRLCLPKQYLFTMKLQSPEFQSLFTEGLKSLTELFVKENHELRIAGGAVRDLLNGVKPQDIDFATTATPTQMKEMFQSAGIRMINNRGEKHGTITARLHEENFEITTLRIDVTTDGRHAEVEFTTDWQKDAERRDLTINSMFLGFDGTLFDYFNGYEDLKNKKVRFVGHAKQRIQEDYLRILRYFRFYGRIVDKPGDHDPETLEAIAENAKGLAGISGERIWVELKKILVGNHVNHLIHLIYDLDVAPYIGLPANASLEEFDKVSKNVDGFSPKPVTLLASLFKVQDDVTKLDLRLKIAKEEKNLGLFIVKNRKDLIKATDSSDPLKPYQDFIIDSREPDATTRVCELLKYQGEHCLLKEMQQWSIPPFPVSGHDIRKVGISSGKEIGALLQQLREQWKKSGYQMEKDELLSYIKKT
UniProt Q16763: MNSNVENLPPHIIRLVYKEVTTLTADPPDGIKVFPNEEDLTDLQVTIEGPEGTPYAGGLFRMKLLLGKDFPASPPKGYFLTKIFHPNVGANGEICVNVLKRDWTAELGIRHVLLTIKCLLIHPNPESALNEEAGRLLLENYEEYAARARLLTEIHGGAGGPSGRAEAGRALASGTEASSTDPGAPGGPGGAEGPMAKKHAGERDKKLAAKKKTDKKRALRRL
UniProt Q12931: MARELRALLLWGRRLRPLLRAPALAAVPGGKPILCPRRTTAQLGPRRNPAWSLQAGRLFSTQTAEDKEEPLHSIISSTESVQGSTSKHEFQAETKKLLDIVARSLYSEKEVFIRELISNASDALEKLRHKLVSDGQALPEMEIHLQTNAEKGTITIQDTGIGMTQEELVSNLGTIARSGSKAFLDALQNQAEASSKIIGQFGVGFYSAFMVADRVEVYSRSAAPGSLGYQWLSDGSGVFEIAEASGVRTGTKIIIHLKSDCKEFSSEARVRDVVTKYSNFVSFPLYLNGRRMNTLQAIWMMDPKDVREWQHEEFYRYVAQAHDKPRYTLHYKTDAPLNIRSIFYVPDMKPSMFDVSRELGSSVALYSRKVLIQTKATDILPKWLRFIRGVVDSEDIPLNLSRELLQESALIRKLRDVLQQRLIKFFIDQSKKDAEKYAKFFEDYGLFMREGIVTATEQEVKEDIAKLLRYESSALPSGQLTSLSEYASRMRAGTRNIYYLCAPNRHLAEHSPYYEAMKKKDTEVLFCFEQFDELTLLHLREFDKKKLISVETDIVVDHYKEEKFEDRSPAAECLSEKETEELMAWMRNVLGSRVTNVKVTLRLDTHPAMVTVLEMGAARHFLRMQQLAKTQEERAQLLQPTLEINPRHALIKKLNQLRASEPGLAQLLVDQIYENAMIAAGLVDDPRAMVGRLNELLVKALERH
UniProt Q14166: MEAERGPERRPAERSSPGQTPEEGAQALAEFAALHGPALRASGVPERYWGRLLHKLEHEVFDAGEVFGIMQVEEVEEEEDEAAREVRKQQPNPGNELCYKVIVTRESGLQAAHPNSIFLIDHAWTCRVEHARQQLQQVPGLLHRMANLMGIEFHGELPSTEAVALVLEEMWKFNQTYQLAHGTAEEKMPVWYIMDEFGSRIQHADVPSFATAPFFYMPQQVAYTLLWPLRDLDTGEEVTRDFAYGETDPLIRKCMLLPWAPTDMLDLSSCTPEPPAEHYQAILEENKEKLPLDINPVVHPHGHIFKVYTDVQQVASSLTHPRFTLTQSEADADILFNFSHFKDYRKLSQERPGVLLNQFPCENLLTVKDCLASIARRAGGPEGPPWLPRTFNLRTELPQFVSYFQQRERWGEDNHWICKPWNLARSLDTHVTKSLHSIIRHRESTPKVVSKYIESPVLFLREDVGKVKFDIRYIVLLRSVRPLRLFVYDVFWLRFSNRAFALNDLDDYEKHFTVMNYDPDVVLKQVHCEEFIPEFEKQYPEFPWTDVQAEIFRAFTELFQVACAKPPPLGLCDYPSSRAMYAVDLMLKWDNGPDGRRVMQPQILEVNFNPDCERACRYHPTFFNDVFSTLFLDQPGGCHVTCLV
UniProt O60858: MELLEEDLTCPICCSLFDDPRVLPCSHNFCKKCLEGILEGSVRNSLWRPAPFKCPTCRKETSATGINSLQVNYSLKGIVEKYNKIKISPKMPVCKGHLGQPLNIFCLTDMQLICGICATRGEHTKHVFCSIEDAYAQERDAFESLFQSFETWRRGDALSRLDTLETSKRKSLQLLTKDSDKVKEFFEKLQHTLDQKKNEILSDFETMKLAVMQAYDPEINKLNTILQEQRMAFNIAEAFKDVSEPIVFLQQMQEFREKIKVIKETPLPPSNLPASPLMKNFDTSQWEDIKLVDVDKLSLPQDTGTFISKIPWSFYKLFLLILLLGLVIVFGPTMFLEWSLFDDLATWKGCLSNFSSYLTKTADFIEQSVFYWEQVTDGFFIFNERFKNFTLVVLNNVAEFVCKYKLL
UniProt Q9C0H2: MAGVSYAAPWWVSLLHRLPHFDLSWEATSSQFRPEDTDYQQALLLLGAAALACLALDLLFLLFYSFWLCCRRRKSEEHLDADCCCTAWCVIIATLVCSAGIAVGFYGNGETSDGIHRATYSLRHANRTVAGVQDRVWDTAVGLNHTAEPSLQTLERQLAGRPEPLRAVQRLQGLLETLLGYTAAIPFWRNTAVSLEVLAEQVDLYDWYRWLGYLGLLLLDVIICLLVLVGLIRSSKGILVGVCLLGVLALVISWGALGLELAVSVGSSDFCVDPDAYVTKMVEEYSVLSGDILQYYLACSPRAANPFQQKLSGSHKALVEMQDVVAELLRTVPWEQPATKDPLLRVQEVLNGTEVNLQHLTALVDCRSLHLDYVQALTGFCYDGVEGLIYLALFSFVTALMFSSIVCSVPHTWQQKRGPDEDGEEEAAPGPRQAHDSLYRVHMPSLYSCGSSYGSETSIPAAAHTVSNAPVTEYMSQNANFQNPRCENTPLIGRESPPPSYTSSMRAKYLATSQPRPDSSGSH
UniProt O43617, whole entry: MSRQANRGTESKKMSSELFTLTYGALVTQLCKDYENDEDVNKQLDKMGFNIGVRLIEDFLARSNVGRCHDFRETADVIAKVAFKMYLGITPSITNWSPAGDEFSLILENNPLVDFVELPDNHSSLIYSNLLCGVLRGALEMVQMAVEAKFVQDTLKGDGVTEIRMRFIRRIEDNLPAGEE
UniProt O75157: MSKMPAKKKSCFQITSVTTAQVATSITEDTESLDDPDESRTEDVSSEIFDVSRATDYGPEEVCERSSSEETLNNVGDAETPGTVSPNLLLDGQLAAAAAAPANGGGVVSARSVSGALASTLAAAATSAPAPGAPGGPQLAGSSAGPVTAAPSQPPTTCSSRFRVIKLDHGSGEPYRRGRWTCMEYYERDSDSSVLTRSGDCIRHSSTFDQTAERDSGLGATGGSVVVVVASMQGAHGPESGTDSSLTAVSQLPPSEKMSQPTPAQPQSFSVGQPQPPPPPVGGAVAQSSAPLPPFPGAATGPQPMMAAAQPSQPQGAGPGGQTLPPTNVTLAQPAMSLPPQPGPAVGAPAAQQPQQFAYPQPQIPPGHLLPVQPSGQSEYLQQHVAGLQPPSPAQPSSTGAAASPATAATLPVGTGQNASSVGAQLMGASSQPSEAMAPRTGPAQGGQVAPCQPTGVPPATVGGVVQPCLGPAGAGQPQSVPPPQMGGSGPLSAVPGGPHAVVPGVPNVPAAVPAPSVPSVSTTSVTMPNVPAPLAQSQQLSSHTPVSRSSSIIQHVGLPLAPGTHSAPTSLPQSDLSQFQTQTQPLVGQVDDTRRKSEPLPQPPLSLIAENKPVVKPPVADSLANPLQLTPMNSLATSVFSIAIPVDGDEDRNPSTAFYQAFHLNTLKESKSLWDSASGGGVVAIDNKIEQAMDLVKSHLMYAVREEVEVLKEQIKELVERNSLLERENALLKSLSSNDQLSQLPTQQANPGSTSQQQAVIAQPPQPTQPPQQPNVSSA
UniProt Q9H1E5: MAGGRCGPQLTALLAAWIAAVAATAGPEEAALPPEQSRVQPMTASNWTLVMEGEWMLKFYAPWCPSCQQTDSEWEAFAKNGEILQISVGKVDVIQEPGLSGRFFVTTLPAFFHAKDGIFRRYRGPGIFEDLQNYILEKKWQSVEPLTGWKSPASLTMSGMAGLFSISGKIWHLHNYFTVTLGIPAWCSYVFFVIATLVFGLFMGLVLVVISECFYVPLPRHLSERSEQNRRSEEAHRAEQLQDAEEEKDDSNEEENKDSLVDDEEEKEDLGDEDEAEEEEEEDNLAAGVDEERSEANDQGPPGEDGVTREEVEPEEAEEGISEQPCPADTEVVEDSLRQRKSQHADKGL

Compound in the assay: COc1ccc(Cn2ccc3ccc(C(=O)NO)cc32)cc1
Briefly: dose-dependent thermal stabilisation call (2D-TPP, DLPTP, 10% FDR) (binary (1 = stabilised)); higher = stabilised by the compound. The following applies: system: HL-60 intact cells; concentration range 0.04-10 µM.

The list shows a part of the results.

As for TROVE2 (UniProt P10155), the “dose-dependent thermal stabilisation call” value was inactive: 0.
UBE2J2 (UniProt Q8N2K1): the “dose-dependent thermal stabilisation call” value is inactive: 0.
Under TTC26 stands inactive: 0; under UBE2Z (UniProt Q9H832), inactive: 0; under TUBGCP4 (UniProt Q9UGJ1), inactive: 0.
The value for TRADD (UniProt Q15628) was inactive: 0.
The value for TSN (UniProt Q15631) was inactive: 0; that for UBXN6 (UniProt Q9BZV1) was inactive: 0.
As to TRNT1 (UniProt Q96Q11), the “dose-dependent thermal stabilisation call” value was inactive: 0.
The value for TXN2 (UniProt Q99757) was inactive: 0; that for TSEN34 (UniProt Q9BSV6) was inactive: 0.
Under UBE2S (UniProt Q16763) stands inactive: 0.
Under TRAP1 (UniProt Q12931) stands inactive: 0; under UBE3B (UniProt Q7Z3V4), inactive: 0; under TTLL12 (UniProt Q14166), inactive: 0.
For the target TRIM13 (UniProt O60858), the “dose-dependent thermal stabilisation call” value was inactive: 0.
The value for TTYH3 (UniProt Q9C0H2) was inactive: 0; that for TUBG1 (UniProt P23258) was inactive: 0.
Under TRAF3IP1 (UniProt Q8TDR0) stands inactive: 0.
Under TRAPPC3 (UniProt O43617) stands inactive: 0; under UBIAD1 (UniProt Q9Y5Z9), inactive: 0; under TSNAX (UniProt Q99598), inactive: 0.
On to TSC22D2 (UniProt O75157), for which the “dose-dependent thermal stabilisation call” value is inactive: 0.
Under TXNDC13 (UniProt Q9H1E5) stands inactive: 0; under URB2 (UniProt Q14146), inactive: 0; under UBR3 (UniProt Q6ZT12), inactive: 0.
With TRIM36 (UniProt Q9NQ86), the “dose-dependent thermal stabilisation call” value is inactive: 0.
